From the supplement of paper PMC6335503

Test system: Tasmanian devil fibroblasts
Assay: cell viability, percent of DMSO control (CellTiter-Glo); higher = more viable cells
Settings: 72 h
Protocol: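 Eight-point dose titration of 41 screen hits in triplicate wells on four Tasmanian devil DFTD tumour cell lines (T1-T4) and devil fibroblasts, 384-well plates. Viability was read by CellTiter-Glo (ATP) after 72 h at 37 °C. Percent of control per plate: DMSO wells = 100%, positive-control wells = 0%.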

CCOc1cc2ncc(C#N)c(Nc3ccc(OCc4ccccn4)c(Cl)c3)c2cc1NC(=O)/C=C/CN(C)C [Neratinib(HKI-272)]
Settings | cell viability [%]
0.00617 µM | 91.2
0.0185 µM | 97.2
0.0556 µM | 146
0.166667 µM | 118
0.5 µM | 116
1.5 µM | 105
4.5 µM | 126
13.5 µM | 126

Cc1sc2c(c1C)C(c1ccc(Cl)cc1)=N[C@@H](CC(=O)Nc1ccc(O)cc1)c1nnc(C)n1-2 [OTX015]
Settings | cell viability [%]
0.0123 µM | 117
0.037 µM | 128
0.111111111 µM | 94.2
0.333333 µM | 75.9
1 µM | 78.4
3 µM | 81.3
9 µM | 72.6
27 µM | 109

CCOc1cc2ncc(C#N)c(Nc3ccc(F)c(Cl)c3)c2cc1NC(=O)/C=C/CN(C)C [Pelitinib (EKB-569)]
Settings | cell viability [%]
0.00617 µM | 78.3
0.0185 µM | 143
0.0556 µM | 117
0.166667 µM | 96.8
0.5 µM | 88.7
1.5 µM | 119
4.5 µM | 52.23
13.5 µM | -3.7

C=CC(=O)N1CCC(Oc2cc3c(Nc4ccc(Cl)c(Cl)c4F)ncnc3cc2OC)CC1 [Poziotinib (HM781-36B)]
Settings | cell viability [%]
0.00617 µM | 138
0.0185 µM | 106
0.0556 µM | 99.5
0.166667 µM | 113
0.5 µM | 123
1.5 µM | 72.9
4.5 µM | 75.5
13.5 µM | 6.96

O=C(/C=C/c1cccc(S(=O)(=O)Nc2ccccc2)c1)NO [RLM 2-89]
Settings | cell viability [%]
0.000617 µM | 129
0.00185 µM | 101
0.00556 µM | 113
0.0167 µM | 129
0.05 µM | 132
0.15 µM | 122
0.45 µM | 69.9
1.35 µM | 44.7

C=CC(=O)Nc1cccc(Nc2nc(Nc3ccc(N4CCN(C(C)=O)CC4)cc3OC)ncc2C(F)(F)F)c1 [Rociletinib (CO-1686, AVL-301)]
Settings | cell viability [%]
0.00617 µM | 134
0.0185 µM | 133
0.0556 µM | 121
0.166667 µM | 109
0.5 µM | 104
1.5 µM | 77.7
4.5 µM | 91.5
13.5 µM | 39.4

Cn1cnc2c(F)c(Nc3ccc(Br)cc3Cl)c(C(=O)NOCCO)cc21.O=S(=O)(O)O [Selumetinib (AZD6244)]
Settings | cell viability [%]
0.00617 µM | 94.7
0.0185 µM | 113
0.0556 µM | 118
0.166667 µM | 86.1
0.5 µM | 86.2
1.5 µM | 89
4.5 µM | 65.2
13.5 µM | 49

CC(C)(C)P(=NC(=S)NCCCO)(N1CCCCCC1)N1CCCCCC1 [T0503-0280]
Settings | cell viability [%]
0.00617 µM | 100
0.0185 µM | 84.4
0.0556 µM | 136
0.166667 µM | 159
0.5 µM | 108
1.5 µM | 88.7
4.5 µM | 91.5
13.5 µM | 216

CCS(=O)(=O)c1cccc(-c2cc(C(=O)NC3CCN(C)CC3)c(C)c3[nH]c4ncc(C)cc4c23)c1 [TAK901]
Settings | cell viability [%]
0.00617 µM | 100
0.0185 µM | 101
0.0556 µM | 104
0.166667 µM | 116
0.5 µM | 132
1.5 µM | 91.2
4.5 µM | 132
13.5 µM | 123

COc1cc2ncnc(Nc3ccc(O)c(Br)c3)c2cc1OC [WHI-P154]
Settings | cell viability [%]
0.00617 µM | 78.7
0.0185 µM | 135
0.0556 µM | 109
0.166667 µM | 97.2
0.5 µM | 95.9
1.5 µM | 114
4.5 µM | 86.5
13.5 µM | 84

COCCn1c2c([n+](Cc3cnccn3)c1C)C(=O)c1ccccc1C2=O.[Br-] [YM155]
Settings | cell viability [%]
0.00617 µM | 112
0.0185 µM | 108
0.0556 µM | 119
0.166667 µM | 106
0.5 µM | 119
1.5 µM | 95.1
4.5 µM | 113
13.5 µM | 114
